Experiment in all cases: yeast two-hybrid
The target of experiment [1] is mouse SMAD5 C-domain bait (GAL4DBD fusion) (mouse) (UniProt P04386+P97454).
Experiment [2] deals with mouse SMAD2 C-domain bait (GAL4DBD fusion) (mouse) (UniProt P04386+Q62432).
The target in experiment [3] is mouse SMAD1 C-domain bait (GAL4DBD fusion) (mouse) (UniProt P04386+P70340).

The chains behind the UniProt entries cited, without tags or fusion partners. Where a name states a change or a piece, a line headed by the entry shows the natural chain unless it says otherwise.
UniProt P04386: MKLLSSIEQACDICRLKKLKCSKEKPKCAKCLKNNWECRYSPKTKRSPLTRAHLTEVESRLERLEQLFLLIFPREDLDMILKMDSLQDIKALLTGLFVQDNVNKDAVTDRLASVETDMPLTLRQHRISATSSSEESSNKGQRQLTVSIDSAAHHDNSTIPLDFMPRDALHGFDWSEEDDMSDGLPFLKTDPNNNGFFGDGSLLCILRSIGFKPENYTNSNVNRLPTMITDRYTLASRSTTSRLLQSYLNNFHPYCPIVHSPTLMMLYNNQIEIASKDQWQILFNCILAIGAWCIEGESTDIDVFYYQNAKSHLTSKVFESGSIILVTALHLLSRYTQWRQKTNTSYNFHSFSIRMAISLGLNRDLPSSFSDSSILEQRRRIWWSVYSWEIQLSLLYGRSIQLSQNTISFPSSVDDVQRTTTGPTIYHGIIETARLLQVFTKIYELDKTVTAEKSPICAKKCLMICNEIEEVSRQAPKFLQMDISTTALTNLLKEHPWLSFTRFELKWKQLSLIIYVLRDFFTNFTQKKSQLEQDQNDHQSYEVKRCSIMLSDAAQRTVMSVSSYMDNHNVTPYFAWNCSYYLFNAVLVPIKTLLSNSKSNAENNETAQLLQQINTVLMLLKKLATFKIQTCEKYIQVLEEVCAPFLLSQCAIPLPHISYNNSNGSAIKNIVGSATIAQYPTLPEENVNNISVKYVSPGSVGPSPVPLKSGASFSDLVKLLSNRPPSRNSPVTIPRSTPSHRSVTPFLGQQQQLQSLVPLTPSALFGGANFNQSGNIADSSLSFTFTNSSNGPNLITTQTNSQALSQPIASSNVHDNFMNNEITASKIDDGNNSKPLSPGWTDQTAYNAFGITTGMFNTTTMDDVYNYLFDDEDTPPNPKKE
UniProt P97454: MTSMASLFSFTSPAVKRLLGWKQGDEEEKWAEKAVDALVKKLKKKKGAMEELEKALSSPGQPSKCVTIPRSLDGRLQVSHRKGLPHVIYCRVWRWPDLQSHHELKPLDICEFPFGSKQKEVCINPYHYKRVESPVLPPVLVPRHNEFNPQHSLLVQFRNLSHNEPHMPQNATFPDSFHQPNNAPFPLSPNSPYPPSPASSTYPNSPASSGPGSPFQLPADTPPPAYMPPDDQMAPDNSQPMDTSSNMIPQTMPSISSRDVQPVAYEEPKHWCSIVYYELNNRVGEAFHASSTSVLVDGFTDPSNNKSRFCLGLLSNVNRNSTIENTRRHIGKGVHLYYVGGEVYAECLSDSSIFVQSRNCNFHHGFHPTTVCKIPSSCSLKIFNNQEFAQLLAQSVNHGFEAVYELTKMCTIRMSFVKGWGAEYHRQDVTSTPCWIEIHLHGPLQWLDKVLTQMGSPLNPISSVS
UniProt Q62432: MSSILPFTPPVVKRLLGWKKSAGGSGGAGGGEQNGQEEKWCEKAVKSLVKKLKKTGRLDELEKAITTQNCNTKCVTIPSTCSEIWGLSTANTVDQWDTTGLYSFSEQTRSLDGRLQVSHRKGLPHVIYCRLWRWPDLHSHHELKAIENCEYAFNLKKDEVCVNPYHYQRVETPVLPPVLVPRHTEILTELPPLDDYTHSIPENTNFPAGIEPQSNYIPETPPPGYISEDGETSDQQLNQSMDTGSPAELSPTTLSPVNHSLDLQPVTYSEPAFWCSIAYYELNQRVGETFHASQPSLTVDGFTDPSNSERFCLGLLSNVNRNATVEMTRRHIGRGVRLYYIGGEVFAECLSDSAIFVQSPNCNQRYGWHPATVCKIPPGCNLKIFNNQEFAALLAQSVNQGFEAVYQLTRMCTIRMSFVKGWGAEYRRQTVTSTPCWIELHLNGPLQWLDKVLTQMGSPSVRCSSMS
UniProt P70340: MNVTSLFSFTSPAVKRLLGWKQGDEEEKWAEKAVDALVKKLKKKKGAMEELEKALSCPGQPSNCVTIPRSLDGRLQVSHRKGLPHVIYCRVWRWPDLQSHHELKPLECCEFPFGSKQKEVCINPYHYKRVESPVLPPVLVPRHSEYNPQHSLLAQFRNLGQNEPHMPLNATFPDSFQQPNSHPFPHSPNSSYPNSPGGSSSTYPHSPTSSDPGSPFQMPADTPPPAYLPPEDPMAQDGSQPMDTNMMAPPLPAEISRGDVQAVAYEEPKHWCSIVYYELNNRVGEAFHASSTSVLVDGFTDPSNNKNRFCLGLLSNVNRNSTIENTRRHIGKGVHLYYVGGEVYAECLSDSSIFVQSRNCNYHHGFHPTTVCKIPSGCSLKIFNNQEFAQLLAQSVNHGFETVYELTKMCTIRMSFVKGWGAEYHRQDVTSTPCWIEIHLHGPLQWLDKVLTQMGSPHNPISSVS

Results on two molecules are retold here after patent US20020035246A1.

No constants are given. Whether binding was seen depends on the method and setting. Some entries that bind do so weakly or less than the wild type. Where a sequence is shown, tags or fusion partners need not be part of it.

B1: SIP1 (TH1) prey protein (GAL4TAD fused to the 626 aa polypeptide encoded by th1 cDNA) (protein, not shown: large carriers)
chain: CKKRFSHSGSYSSHISSKKCIGLISVNGRMRNNIKTGSSPNSVSSSPTNSAITQLRNKLENGKPLSMSEQTGLLKIKTEPLDFNDYKVLMATHGFSGSSPFMNGGLGATSPLGVHPSAQSPMQHLGVGMEAPLLGFPTMNSNLSEVQKVLQIVDNTVSRQKMDCKTEDISKLKGYHMKDPCSQPEEQGVTSPNIPPVGLPVVSHNGATKSIIDYTLEKVNEAKACLQSLTTDSRRQISNIKKEKLRTLIDLVTDDKMIENHSISTPFSCQFCKESFPGPIPLHQHERYLCKMNEEIKAVLQPHENIVPNKAGVFVDNKALLLSSVLSEKGLTSPINPYKDHMSVLKAYYAMNMEPNSDELLKISIAVGLPQEFVKEWFEQRKVYQYSNSRSPSLERTSKPLAPNSNPTTKDSLLPRSPVKPMDSITSPSIAELHNSVTSCDPPLRLTKSSHFTNIKAVDKLDHSRSNTPSPLNLSSTSSKNSHSSSYTPNSFSSEELQAEPLDLSLPKQMREPKGIIATKNKTKATSINLDHNSVSSSSENSDEPLNLTFIKKEFSNSNNLDNKSNNPVFGMNPFSAKPLYTPLPPQSAFPPATFMPPVQTSIPGLRPYPGLDQMSFLPHMAYTYP
Consider B1, for which the binding result in experiment [1], in experiment [2] and in experiment [3] was “binds” in each case.

B2: SIP5 prey protein (th76; partial open reading frame fused to the GAL4 transactivating domain in pACT-2) (protein, not shown: small tags and cut ends)
chain: AEFQSADTRGALARASVGLRRCEPWVTTASSCCPHQDPPILNQEQKNVSASCISKKALTRAQFGGQVLHSKESPVRITVSKKNTFVLGGIDCTYEKFENTDVNTISSLCVPIKNHSQSITSDNDVTTERTAKEDITEPNEEMMSRRTILQDPIKNTSKIKRSSPRPNLTLSGRSQRKCTKLETVVKEVKKYQAVHLQEWMIKVINNNTAICVEGKLVDMTDVYWHSNVIIERIKHNELRTLSGNIYILKGLIDSVSMKEAGYPCYLTRKFMFGFPHNWKEHIDKFLEQLRAEKKNKTRQETARVQEKQKSKKKDAEDKETYVLQKASITYDLNDNSLERTEVPTDPLNSLEQPTSGKERRHPLLSQKRAYVLITPLRNKKLIEQRCIDYSLSIEGISDFFKAKHQEESDSDIHGTPSSTSKSQETFEHRVGFEGNTKEDCNECDIITARHIQIPCPKSKQMLTNDFMKKNKLPSKLQKTENQIGVSQYCRSSSHLSSEENEVEIKSRTRGSQ
With B2, the binding result in experiment [1] and in experiment [2] was “binds” each time.
